# Small-molecule microarray binding calls

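Each compound is printed as two spots on a slide made to bind it covalently, so it has no test concentration; the read-out is fluorescence of the bound, labelled oligonucleotide. For the PreQ1, TPP and SAM-II riboswitches the laboratory earlier reported (doi:10.1038/s41467-019-09493-3) 1 µM RNA, 2 h, and a rule that included a mean Z-score above 3 (spot signal-to-noise against the whole library), a score well above that on a control array, and duplicate spots agreeing (coefficient of variation under 100). The data file gives only the calls; its cut-offs may differ, and compounds hitting several targets are kept. The calls come from the array alone, and fixing a compound to the slide can hide its binding.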
“hit” means called a hit, “none” means screened and not called a hit.
This is an unselected part of the compounds tested.

Targets (5′ to 3′):
PreQ1: PreQ1 riboswitch RNA pseudoknot, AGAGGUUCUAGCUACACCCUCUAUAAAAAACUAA. From B. subtilis. About 24,000 compounds screened, about 170 hits.

| # | SMILES | PreQ1 |
|---|---|---|
| 1 | `OC1CCN(c2ccnc(N3CCN(CC=Cc4ccccc4)CC3)n2)C1` (stereo not given) | none |
| 2 | `COc1cccc(-c2ccc(C(=O)N3CCN[C@@H]4CS(=O)(=O)C[C@@H]43)o2)c1` | none |
| 3 | `Nc1ccc(NC(=O)c2ccc(C(=O)Nc3ccc(N)cc3)cc2)cc1` | none |
| 4 | `CCCn1ncc(NC(=O)c2ccc(CN3CCNCC3(C)C)cc2)n1` | none |
| 5 | `Nc1nnc(SCC=Cc2ccc([N+](=O)[O-])cc2)s1` | none |
| 6 | `Cc1ccccc1OCC(=O)N1CCN(C(=O)c2nonc2N)CC1` | none |
| 7 | `Cc1ccccc1Nc1c(-c2ccsc2)nc2cccc(C)n12` | none |
| 8 | `CCC(=O)N1c2ccc(S(=O)(=O)N(CCO)Cc3ccccc3)cc2CC1C` (stereo not given) | none |
| 9 | `COc1ccccc1-c1cc(C(F)(F)F)nc(NCc2ccco2)n1` | none |
| 10 | `c1ccc(-c2csc(Nc3cccnc3)n2)cc1` | none |
| 11 | `O=C1c2[nH]nc(-c3ccccc3O)c2C(c2ccc(Cl)cc2)N1CCO` (stereo not given) | none |
| 12 | `Cc1cc(NCCC(C)C)n2nc(-c3ccccc3)c(C)c2n1` | none |
| 13 | `Cc1ccc(-n2nc(CO)c(C(=O)NCc3cccnc3)n2)cc1` | none |
| 14 | `CC1CCCCN1C1CN(c2nc(CCN)nc3ccccc23)C1` (stereo not given) | none |
| 15 | `Cc1nn(C)c(C)c1CN(CCO)C(=O)c1cnc(-c2ccncc2)nc1` | none |
| 16 | `Cc1ccn2c(C(=O)N3CCC4(CC3)Nc3ccccc3NC4=O)nnc2n1` | none |
| 17 | `O=S(=O)(c1ccc2nc(NCCc3ccccc3)cnc2c1)N1CCCCC1` | none |
| 18 | `COc1ccccc1/C=C/C(=O)/C=C/c1ccccc1O` | none |
| 19 | `Cc1ccc(Cl)cc1N1CCN(CC(O)c2ccc3c(c2)CCN3)CC1` (stereo not given) | none |
| 20 | `CC(C)c1nc(CN(C)C(=O)[C@H](N)Cc2ccc(Cl)cc2)cs1` | none |
| 21 | `CN1CC2(CCNCC2)CC1C(=O)NC1Cc2ccccc2C1` (stereo not given) | none |
| 22 | `Cc1cc(NCCOCCO)n2nc(-c3ccc(Cl)cc3)c(C)c2n1` | none |
| 23 | `Cc1ccc(NC2c3ccccc3Oc3ccccc32)cc1` | none |
| 24 | `OCCn1nc(Cc2cccc(Cl)c2)nc1-c1cnn[nH]1` | none |
| 25 | `CCc1cnc(N)nc1NCCn1nc(C(F)(F)F)cc1C` | none |
| 26 | `O=C(O)c1ccccc1-c1ccccc1C(=O)Nc1ccc2oc(=O)c3ccccc3c2c1` | none |
| 27 | `O=C(CCc1ccsc1)N1CCOCC(CO)C1` (stereo not given) | none |
| 28 | `CCC12CCCN3CCc4c(n(c5ccccc45)C(O)(C(=O)OC)C1)C32` (stereo not given) | none |
| 29 | `CC(C)(O)CCc1ccc(OCc2cc(-c3cccc(OC(F)F)c3)c3ncccc3c2)cc1` | none |
| 30 | `CC(C)c1ccnc(NCC(O)CN2CCCC2)n1` (stereo not given) | none |
| 31 | `O=S1(=O)C[C@H](NCc2ccc(Cl)cc2)[C@@H](S(=O)(=O)c2ccc(F)cc2)C1` | none |
| 32 | `Cn1c(C2=C(N)N(c3ccc(Br)cc3)CC2=O)nc2ccccc21` | none |
| 33 | `CC1=C(C(=O)O)N2C(=O)[C@@H](NC(=O)C(N)c3ccccc3)[C@H]2SC1` (stereo not given in full) | none |
| 34 | `Cn1c(=O)c2c(c3ccccc31)OC(N)=C(C#N)C21C(=O)Nc2ccccc21` (stereo not given) | none |
| 35 | `Cn1cc(CN)cn1` | none |
| 36 | `c1cc(CN2CCOCC2)cc(C2NCCc3[nH]cnc32)c1` (stereo not given) | none |
| 37 | `COc1ccc(C2(C(=O)N3CCC4(CC3)CNC(C(=O)O)C4)CC2)cc1` (stereo not given) | none |
| 38 | `CC[C@@]1(O)CCN(C(=O)c2cccc(N3Cc4ccccc4C3)c2)C[C@H]1O` | none |
| 39 | `Cn1ncc(N2CCC(CNC(=O)[C@@H](N)c3ccccc3)CC2)cc1=O` | none |
| 40 | `CC(C)Cn1cncc1CNC1CCN(c2ccc(F)cc2)C1` (stereo not given) | none |
| 41 | `Nc1cc(OC(=O)c2ccco2)nn1S(=O)(=O)c1ccc(F)cc1` | none |
| 42 | `C=C1C(=CC=C2CCC[C@]3(C)[C@@H]([C@H](C)C=C[C@H](C)C(C)C)CC[C@@H]23)C[C@@H](O)C[C@@H]1O` | none |
| 43 | `O=C(Nc1cc(Cl)cc(Cl)c1)N1C[C@H]2CC[C@@H](C1)[C@H]2O` | none |
| 44 | `Cc1ccc(Nc2ncc3c(n2)CC(c2ccccc2)CC3=O)c(C)c1` (stereo not given) | none |
| 45 | `COc1ccc(Br)cc1Cn1nnc(C(=O)Nc2ccc(C)cc2C)c1N` | none |
| 46 | `Nc1nc(CCC(=O)NCCCN2CCOCC2)cs1` | none |
| 47 | `CC(O)c1nc2ccccc2n1Cc1ccccc1` (stereo not given) | none |
| 48 | `CCc1nnsc1C(=O)N1CCC2(CC1)[C@H](O)C[C@@H]2OCCN` | none |
| 49 | `CCOc1ccccc1C1C(C#N)=C(N)OC2=C1S(=O)(=O)N(Cc1ccccc1)c1ccccc12` (stereo not given) | none |
| 50 | `CC(C)CNc1oc(-c2ccc(S(=O)(=O)N3CCCC3)cc2)nc1C#N` | none |
| 51 | `CCOC(=O)c1sc2nc(C)nc(Nc3ccc(Cl)cc3)c2c1C` | none |
| 52 | `CCCC1=C(C(=O)OCC)C2(C(=O)Nc3ccc(C)cc32)C(C#N)=C(N)O1` (stereo not given) | none |
| 53 | `COc1ccc(NC(=O)CCc2c(C)nc3nc(CN)nn3c2C)cc1` | none |
| 54 | `CCSc1nc(N)c(C#N)c(CC)c1C#N` | none |
| 55 | `CCc1c(C)nn(CCn2cc(-c3ccc(CO)o3)nn2)c1C` | none |
| 56 | `COc1ccc(OC)c(C(=O)c2oc3ccc(N)cc3c2C)c1` | none |
| 57 | `CC1(C)CC(NC(=O)N2c3ccccc3Sc3ccccc32)CC(C)(C)N1.Cl` | none |
| 58 | `NCCNC(=O)c1nnc(Cc2cccc(C(F)(F)F)c2)o1` | none |
| 59 | `O=C(C1CC1)N1CCCC(n2ccnc2-c2cc3n(n2)CCNC3)C1` (stereo not given) | none |
| 60 | `Nc1ccc2oc(-c3cccc4c(Br)cccc34)nc2c1` | hit |
| 61 | `Cc1ccccc1CSc1nnc(CCN)o1` | none |
| 62 | `c1cnc(N2CCC(NCc3nc(C4CCCCC4)no3)CC2)nc1` | none |
| 63 | `CC(=O)Nc1ccc2cc3ccc(NC(C)=O)cc3nc2c1` | none |
| 64 | `CN(C)CCCNCc1cccn1C` | none |
| 65 | `COc1cc(C2C(C#N)=C(N)Oc3[nH]nc(C)c32)ccc1O` (stereo not given) | none |
| 66 | `CCOC(=O)c1ccc(NC2C=CS(=O)(=O)C2)cc1` (stereo not given) | none |

Once more, the final 7:

| SMILES | PreQ1 |
|---|---|
| `Nc1ccc2oc(-c3cccc4c(Br)cccc34)nc2c1` | hit |
| `Cc1ccccc1CSc1nnc(CCN)o1` | none |
| `c1cnc(N2CCC(NCc3nc(C4CCCCC4)no3)CC2)nc1` | none |
| `CC(=O)Nc1ccc2cc3ccc(NC(C)=O)cc3nc2c1` | none |
| `CN(C)CCCNCc1cccn1C` | none |
| `COc1cc(C2C(C#N)=C(N)Oc3[nH]nc(C)c32)ccc1O` (stereo not given) | none |
| `CCOC(=O)c1ccc(NC2C=CS(=O)(=O)C2)cc1` (stereo not given) | none |

Source: the ROBIN nucleic acid binder screens (doi:10.1002/anie.202211358).